In all, about 350,000 compounds went through this assay and about 6,000 (1.7%) were called active. This list was built around the results that the source calls inconclusive (neither active nor inactive); the mix of calls is not that of the screen. Cut-off read from the data, not from the text of the source: active = CPE inhibition above about 20% (passing the limit was not always enough); inconclusive = no clear call, values can overlap the other calls; tested in BHK-21 cells.
Test: protection of cells from dengue 2 killing – plate reader, single concentration, primary screen (AID 651640);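 note: 0% = median of neutral control wells and 100% = median of positive control wells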
Settings: DENV2-infected cells, cytopathic effect rescue, at 9.99 µM, stronger effect = higher value
With `CCOc1ccccc1NC(=O)NNC(=O)c1ccc2ccccc2c1` the CPE inhibition was inconclusive: 43.8%.
In the case of `C[C@H]1CN([C@@H](C)CO)C(=O)c2cc(C#CC3(O)CCCC3)cnc2O[C@@H]1CN(C)C(=O)C1CCCCC1`, the CPE inhibition is reported as inactive: -0.372%.
In the case of `COc1ccc(S(=O)(=O)Nc2ccc3c(c2)C(=O)N([C@H](C)CO)C[C@@H](C)[C@H](CN(C)CC2CCCCC2)OCCCC[C@@H](C)O3)cc1`, the CPE inhibition is reported as inconclusive: 26.4%.
With `CCCNC(=O)C[C@H]1CC[C@@H]2[C@H](COC[C@H](O)CN2C(=O)c2cccnc2)O1` the CPE inhibition was inactive: -5.98%.
With `COC(=O)C1=C(C)N(Cc2ccccc2)C(=NCC(C)C)N[C@H]1c1cccc(F)c1` the CPE inhibition was active: 25.1%.
With `CO[C@@H]1CC[C@@H]2CCN(C)C(=O)C[C@H](c3ccccc3)CN(C)C(=O)c3cccc(C#N)c3OC[C@@H]1O2` the CPE inhibition was inactive: 1.26%.
With `COC(=O)[C@H]1[C@H](CO)[C@H]2Cn3c(ccc(-c4ccccc4)c3=O)[C@H]2N1CC1CCCCC1` the CPE inhibition was active: 45.4%.
For `O=C(COC(=O)COc1ccc2c(c1)CCC2)Nc1ccccc1`, the CPE inhibition was inconclusive: 24.2%.
With `Nc1c(C(=O)CSc2nnc(N3CCOCC3)n2-c2cccc(F)c2)c(=O)[nH]c(=O)n1C1CC1` the CPE inhibition was inconclusive: 41.9%.
With `CCc1nnc(N2C(=O)c3ccccc3C2(O)c2ccccc2)s1` (stereo not given) the CPE inhibition was active: 41.1%.
For `COc1ccc(NC(=O)N(C)C[C@@H]2Oc3ccc(NC(=O)Nc4ccc5c(c4)OCO5)cc3C(=O)N([C@H](C)CO)C[C@@H]2C)cc1`, the CPE inhibition was inactive: 3.26%.
With `COc1ccc(C(CNC(=O)c2ccc(Cl)c(S(=O)(=O)N3CCCC3)c2)N2CCCC2)cc1` (stereo not given) the CPE inhibition was inconclusive: 23.9%.
With `COc1ccc(NC(=O)NCCCCc2ccccc2)cc1` the CPE inhibition was inconclusive: 37.6%.
In the case of `O=C(Nc1cccc([N+](=O)[O-])c1)Nc1ccc2c(c1)CCC2`, the CPE inhibition is reported as inconclusive: 32.5%.
With `C/C=C/c1ccc([C@@H]2[C@@H](CO)N(C(=O)CC)[C@H]2CNC(=O)c2ccncc2)cc1` the CPE inhibition was inconclusive: 10.5%.
With `CCCCCCCCN1C(=O)[C@H](CC(=O)N2CCCCC2)C[C@@]2(C(=O)OC)CCCCC=C12` the CPE inhibition was inactive: 4.27%.
For `Cc1ccccc1C(=O)N(C)c1ccccc1C(=O)NCc1ccccc1`, the CPE inhibition was inconclusive: 46.7%.
In the case of `COc1ccc(-c2ccc([C@@H]3[C@@H](CO)N4C(=O)CN(C(=O)C5CCCC5)C[C@@H]34)cc2)cc1`, the CPE inhibition is reported as inconclusive: 35.2%.
For `COc1ccccc1CNC(=O)C[C@H]1C=C[C@@H](NC(C)=O)[C@@H](CO)O1`, the CPE inhibition was inconclusive: 48.6%.
In the case of `COc1ccc2c3c([nH]c2c1)[C@H](CO)N(C(=O)Nc1cccc(F)c1)CC31CN(CC2CC2)C1`, the CPE inhibition is reported as active: 24.8%.
With `CN(C)Cc1csc(Nc2ccc(C(F)(F)F)cn2)n1` the CPE inhibition was inconclusive: 50.5%.
With `C[C@@H]1CN([C@@H](C)CO)C(=O)c2cc(NC(=O)CCCN(C)C)ccc2O[C@@H](C)CCCCO[C@@H]1CN(C)C(=O)Cc1ccccc1` the CPE inhibition was active: 63.8%.
In the case of `C[C@@H]1CN([C@H](C)CO)C(=O)CCCn2nncc2CO[C@@H]1CN(C)C(=O)Nc1ccc(-c2cccs2)cc1`, the CPE inhibition is reported as inconclusive: 25.1%.
In the case of `COCCNC(=O)C[C@H]1C[C@@H]2c3cc(NC(=O)Nc4ccc(OC)cc4)ccc3O[C@@H]2[C@H](CO)O1`, the CPE inhibition is reported as inconclusive: 60.5%.
In the case of `COc1ccccc1C(=O)Nc1ccc2c(c1)nc(CN1CCCCC1)n2C`, the CPE inhibition is reported as inactive: -4.28%.
For `Cc1cc2[nH]c(=O)c(=O)[nH]c2cc1S(=O)(=O)N(C)C1CCCCC1`, the CPE inhibition was inconclusive: 55.7%.
In the case of `COc1ccc(-c2nnc(NC(=O)c3c(OC)cccc3OC)s2)cc1`, the CPE inhibition is reported as inconclusive: 26.2%.
For `C[C@H](CO)N1C[C@H](C)[C@@H](CN(C)C(=O)Cc2ccccn2)Oc2ncc(-c3ccc(F)cc3)cc2C1=O`, the CPE inhibition was inconclusive: 21.1%.
With `C[C@@H]1CCCCO[C@@H](CN(C)C)[C@H](C)CN([C@@H](C)CO)C(=O)c2cc(NC(=O)c3ccncc3)ccc2O1` the CPE inhibition was inactive: -3.87%.
With `OC(CNC1Cc2ccccc2C1)COc1ccc(Cl)cc1` (stereo not given) the CPE inhibition was inconclusive: 43.4%.
In the case of `C[C@@H]1CCCCO[C@H](CN(C)S(=O)(=O)c2ccc(F)cc2)[C@H](C)CN([C@@H](C)CO)C(=O)c2cc(NC(=O)Nc3ccc(C(F)(F)F)cc3)ccc2O1`, the CPE inhibition is reported as inconclusive: 29.2%.
With `COCCN(C(=O)CSc1nc2ccc(OC)cc2[nH]1)c1c(N)n(Cc2ccccc2)c(=O)[nH]c1=O` the CPE inhibition was inconclusive: 34.4%.
In the case of `O=C(NC1CCCCC1)[C@@H]1[C@@H](CO)[C@@H]2Cn3c(cccc3=O)[C@H]1N2Cc1cccnc1`, the CPE inhibition is reported as active: 136%.
With `CC(=O)N1[C@H](CO)[C@H](c2ccc(-c3ccccc3)cc2)[C@H]1CNC(=O)NC(C)C` the CPE inhibition was inconclusive: 23.6%.
For `O=C(C[C@@H]1C=C[C@H](NC(=O)Cc2ccccn2)[C@H](CO)O1)NCCCN1CCOCC1`, the CPE inhibition was active: 32.6%.

Source: PubChem BioAssay AID651640 (Broad Institute, 2012)
